# Experimental data published in US20210077500A1, “PIKFYVE INHIBITORS FOR CANCER THERAPY” (Al Therapeutics, Inc., priority 2019, published 2021).
# At least one read-out could not be matched to a standard name with certainty.
# Columns and labels:
# EBC-1 = experiment: 5-day viability assay, single agent and combination (Chou-Talalay CI); conditions: read-out: IC50 (single agent), 120 h, average of two independent experiments
# MKN45 = experiment: as above; conditions: read-out: IC50 (single agent), 120 h, average of two independent experiments
# GP5d = experiment: CellTiter-Glo cell viability, single agent and combination (Chou-Talalay CI); assay type: cell-based; conditions: GP5d (colorectal, KRAS G12D); 120 h; average of two independent experiments
# RKO cells = experiment: as above; conditions: read-out: IC50 (single agent); RKO (colorectal, BRAF V600E); 120 h; average of two independent experiments
Structure (SMILES),IC50 (EBC-1),IC50 (MKN45),IC50 (GP5d),IC50 (RKO cells)
"C[C@@H](Oc1cc(-c2cnn(C3CCNCC3)c2)cnc1N)c1c(Cl)ccc(F)c1Cl [Crizotinib, crizotinib]",14 nM,23 nM,–,–
"CC(=O)Nc1cccc(-n2c(=O)n(C3CC3)c(=O)c3c(Nc4ccc(I)cc4F)n(C)c(=O)c(C)c32)c1 [Trametinib, trametinib]",7 nM,13 nM,–,–
Cc1cccc(/C=N/Nc2cc(N3CCOCC3)nc(OCCc3ccccn3)n2)c1 [apilimod],–,–,> 200 nM,294 nM
